Results are given in words; binding and its absence hold for the method and conditions named. Binding seen in cells or lysates may run through a third protein. Some results given as binding are weak or reduced against the parent protein; the word gives no strength. Tags and fused reporters may be left off the sequences shown.

In this assay the target is T1, Mic10-His6 (S. cerevisiae) (UniProt Q96VH5).
T1 sequence: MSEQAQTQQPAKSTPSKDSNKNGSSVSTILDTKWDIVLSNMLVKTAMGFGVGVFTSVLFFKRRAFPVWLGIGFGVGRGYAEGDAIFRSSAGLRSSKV
The experiment in a line: pull-down; mitochondria (1 mg protein) from a strain expressing Mic10-His6 lysed with 1% digitonin (50 mM potassium phosphate, 50 mM NaCl, 10 mM imidazole, pH 8.0, 1 mM PMSF); Ni-NTA beads; bound proteins eluted with Laemmli buffer with 300 mM imidazole; immunoblotting.

B1: Mic19 (protein, UniProt P43594 1-170)
chain: MGSNTSKVGAGAEKQQVYTPLTQIDFSQSLVSQLDSSKESDYVTKQNAEKFIEKKVSQRLSNLEVETLKKFEDTLNNSLLSDDDKDAVDGISSSSLNNQIESLNKKLTLFDQLELQKLEKYGGAKGKSDKKTDNGSISIKAKLTECLLANKGKPLNCYEEMEEFKKLVMG
Regarding B1, the binding result was “binds”.

B2: Mic27 (protein, UniProt P50945 1-234)
chain: MVNFYDDVDESKSHGEFPLIPVVLQNSSELSVRTIPTGNEIIESVHLTKWLRKYRNALASQLDRYEKGWQSKIANFRLQVQHVINYSRKNIFNVDSENKHTVVPGSLIALGAFFAGSIAVNRSNWGAKRLIFGHKSSILEKLCTSLPSRILLPWVLAAATFKYWAPQTSQNLVNATENDLLPADFVKSYHNTWKRIYEEGYVAKKCDLKRQIDQTLQKNIRYAREQLYEKLEQA
As for B2, the binding entry is “binds”.

B3: Mic12 (protein, UniProt P38341 1-106)
chain: MSKLGPLARSVKWTLSVGVIGSVFYLYRYSNNGYFYDHDATWLKQDHQVQDLVDRKEVVPGETRNRKLVVTDDGTAWSRTMGESIKDIWNEQIRNSVDWIYSWGKN
Consider B3, for which the binding result is listed as “binds”.

B4: Mic26 (protein, UniProt P50087 1-233)
chain: MTKDFYRQLDPVEEKIVPPENAIVISSEAKEATVNEKEAKQGVLSQRVMKYIGENELVDGISVRDPDYLKRFFNERRKQFSAKWDKVTNKIDDIAGRYYAREESFTSTIASLHTDPNERLIPGLLSILVASMTGSVLARRRTWLLRATMPIILGSCCFAYAMPTTFRNTMGLIHNLEMNTFPHFTERQDRVWKETKRLSTASVQYYYDAKKWLNKDVEKTGNAIKNWTGVNVK
Consider B4, for which the binding entry is on record as “binds”.

B5: Mic60 (protein, UniProt P36112 18-540)
chain: ASINTGTTVASKKASHKFRNTLWTIALSATAFYAGGIIYSQKNDKFGDFFSNNVPFAEDLLETYEHYHDRPTLFLEDSWDGLKAKSNDLLSGLTGSSQTRRSNRENIEVKKILSLEPLNIETENSDPQLKEIIGSLNDLINSLNDSNLSIPESEFNSIKKSNQNMLTNLSQLNETLKEALSNYMIQRTSEVITELNTQYENSKREFEKNLQKNLLQEVDEFKENLTKQKDKELEEKLKANEELLQAKHANEVGLLSITQVKEFNKIIKDKIEKERNGRLAHLEEINSEVNDLSKSIDRSSKILSKNEALVQLTFQVDEIKSRINNNNLPDVNIDKELSRLKLLSNLLSTFNKKSCCDDGDCCSCKKGNKNEGKEGKISCKCKPKTNPPSLLSVALDELESTCSGKKILSNEQIYNRWNLLADDFKTASLLPPNSGILGQLTAKVFSLFLFTKTGNPSNATDFDSVYARVGDNLRVSNLNDAVEEVVSLKGWPHKVCESWIEDARRKLEVQRLVEILDCEIRTL
In the case of B5, the binding result was “binds”.

The record behind these values is publication PMC3975624.
